According to patent US20240016923A1:
Results are given in words; binding and its absence hold for the method and conditions named. Some entries that bind do so weakly or less than the wild type.

Columns and labels:
[1] = molecular target: secreted E1E2 with c-Fos/c-Jun leucine zipper scaffold (sE1E2.LZ) (Hepatitis C virus H77; human); test: summary of the ELISA and SPR results
[2] = molecular target: membrane-bound E1E2 (mbE1E2) (Hepatitis C virus, isolate H77C (genotype 1a)) (UniProt P27958); test: SPR, antigen immobilized, CD81-LEL injected
[3] = molecular target: secreted E1E2 with c-Fos/c-Jun leucine zipper scaffold (sE1E2.LZ) (Hepatitis C virus H77; human); test: SPR, antigen immobilized, CD81-LEL injected

Measured: binding

B1: CD81 large extracellular loop (CD81-LEL) (receptor, UniProt P60033 113-201, looked up, not shown: small tags and cut ends)
chain: FVNKDQIAKDVKQFYDQALQQAVVDDDANNAKAVVKTFHETLDCCGSSTLTALTTSVLKNNLCPSGSNIISNLFKEDCHQKIDDLFSGK
binds: all assays above
